This note sets out measurements from patent US20220267458A1.

Protein sequences, listed by entry. Tags and fused reporters are not part of them. Residues count along the entry.
UniProt Q9Y5U5, residues 26-241: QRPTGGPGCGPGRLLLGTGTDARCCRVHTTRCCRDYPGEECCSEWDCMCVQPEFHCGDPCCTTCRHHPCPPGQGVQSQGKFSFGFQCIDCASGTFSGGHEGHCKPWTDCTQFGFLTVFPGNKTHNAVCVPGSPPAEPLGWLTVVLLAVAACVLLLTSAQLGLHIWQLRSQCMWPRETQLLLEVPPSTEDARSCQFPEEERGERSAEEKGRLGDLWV

These are yes or no findings as the source states them, for the method shown. Some entries that bind do so weakly or less than the wild type.

The target of assay [1] is human GITR overexpressed on CHO cells (CHO-GITR) (human) (UniProt Q9Y5U5). Description: flow cytometry on CHO-GITR cells, PE anti-human Fc detection, MFI.
Assay [2] has the same target. Nature of the assay: flow cytometry on CHO-GITR cells, PE anti-human Fc detection.

B1: hcIgG-04 (antibody, V domains shown)
VH: QVQLQESGGGSVQAGGSLRLSCTASGFTVDDSGMGWYRQAPGNECELVSTISSDGSTYYADSVKGRFTISQDNAKNTVYLQMNSLKPEDTAVYYCAAPRVGVGWVRPCDYEYNYWGQGTQVTVSS
In the case of B1, the binding entry in assay [1] and in assay [2] was “binds” throughout.
